Experimental data from article doi:10.1101/2022.05.10.491305.
Numbering of substitutions follows the chain as printed. Numbers in names are those of the source. Results are given in words; binding and its absence hold for the method and conditions named. Binding seen in cells or lysates may run through a third protein. Some results given as binding are weak or reduced against the parent protein; the word gives no strength. Sequences can lack the tags named with a protein.

How the values were obtained:
Test in all cases: cross-linking
[1] = target: FLAG-tagged wild-type human MX1 (HsMX1), stably expressed in HEK293T cells (human) (UniProt P20591)
[2] = target: FLAG-tagged HsMX1 T103A (GTPase inactive mutant), stably expressed in HEK293T cells (human) (UniProt P20591)
[3] = target: FLAG-tagged HsMX1 L41A, stably expressed in HEK293T cells (human) (UniProt P20591)
[4] = target: FLAG-tagged HsMX1 M527D (monomeric mutant), stably expressed in HEK293T cells (human) (UniProt P20591)

B1: FLAG-tagged wild-type human MX1 (HsMX1), stably expressed in HEK293T cells (protein, UniProt P20591 1-662)
chain: MVVSEVDIAKADPAAASHPLLLNGDATVAQKNPGSVAENNLCSQYEEKVRPCIDLIDSLRALGVEQDLALPAIAVIGDQSSGKSSVLEALSGVALPRGSGIVTRCPLVLKLKKLVNEDKWRGKVSYQDYEIEISDASEVEKEINKAQNAIAGEGMGISHELITLEISSRDVPDLTLIDLPGITRVAVGNQPADIGYKIKTLIKKYIQRQETISLVVVPSNVDIATTEALSMAQEVDPEGDRTIGILTKPDLVDKGTEDKVVDVVRNLVFHLKKGYMIVKCRGQQEIQDQLSLSEALQREKIFFENHPYFRDLLEEGKATVPCLAEKLTSELITHICKSLPLLENQIKETHQRITEELQKYGVDIPEDENEKMFFLIDKVNAFNQDITALMQGEETVGEEDIRLFTRLRHEFHKWSTIIENNFQEGHKILSRKIQKFENQYRGRELPGFVNYRTFETIVKQQIKALEEPAVDMLHTVTDMVRLAFTDVSIKNFEEFFNLHRTAKSKIEDIRAEQEREGEKLIRLHFQMEQIVYCQDQVYRGALQKVREKELEEEKKKKSWDFGAFQSSSATDSSMEEIFQHLMAYHQEASKRISSHIPLIIQFFMLQTYGQQLQKAMLQLLQDKDTYSWLLKERSDTSDKRKFLKERLARLTQARRRLAQFPG
[1]
  binding: binds

B2: FLAG-tagged HsMX1 T103A (GTPase inactive mutant), stably expressed in HEK293T cells (protein, UniProt P20591 1-662)
chain: B1 chain with T103A
[2]
  binding: binds

B3: FLAG-tagged HsMX1 L41A, stably expressed in HEK293T cells (protein, UniProt P20591 1-662)
chain: B1 chain with L41A
[3]
  binding: binds

B4: FLAG-tagged HsMX1 M527D (monomeric mutant), stably expressed in HEK293T cells (protein, UniProt P20591 1-662)
chain: B1 chain with M527D
[4]
  binding: no binding
